Laboratory results taken from PMC11896966.
For at least one entry, the source does not settle the construct or the ends of the probe.

What was measured:
[1] = molecular target: GST-SlNOR (NAC domain-containing truncation) (Solanum lycopersicum (tomato)) (UniProt A0A3Q7J5X6); assay: EMSA; settings: EMSA with biotin-labelled oligonucleotides; pH and temperature not given; recombinant protein; protein details: GST (pGEX); label: biotin
[2] = system: GST-SlNOR-like1 (Solanum lycopersicum (tomato)); assay: EMSA; settings: EMSA with biotin-labelled oligonucleotides; pH and temperature not given; recombinant protein; protein details: GST (pGEX); label: biotin

ACATTTCGTAGAGAATTTCATTACGTCTACTTTAATATCTTTAATTTTCT (double strand) [SlCER1 promoter probe wild]
binding result [1]: binds
binding result [2]: binds

GTACAAATAGTCAAGTTTACATTACGTATCCAAACTTTATGTCATTATTA (double strand) [SlABCG23 promoter probe wild]
binding result [1]: binds
binding result [2]: binds

TATTATACTACTAGTCAATAACACGCAATGCATACATGACTTAATATCTT (double strand) [SlGRP92 promoter probe wild]
binding result [1]: binds
binding result [2]: binds

GATTCGTAATTTTACAATGTAATGTGCATTTACGTAATCAAGTTATATGC (double strand) [SlABCG9 promoter probe wild]
binding result [1]: binds
binding result [2]: binds

CCCCTAAGTATTATCAGAACACACGTAAATGAAAGGGCGACAGATATTTC (double strand) [SlABCG8 promoter probe wild]
binding result [1]: binds
binding result [2]: binds
